According to patent publication US7732416B2, “Avermectins substituted in the 4″-position having pesticidal properties” (Merial Limited, priority 2001, dated 2010):
Some of these results come from one statement about several compounds together.

Columns and labels:
Format in all cases: in vivo
Diabrotica balteata = assay: Example B6 Activity against Diabrotica balteata (sprayed maize seedlings); conditions: 12.5 ppm spray liquor, second-stage larvae, 6 days
Plutella xylostella = assay: Example B4 Activity against Plutella xylostella caterpillars (sprayed cabbage plants); conditions: 12.5 ppm spray liquor, first-stage caterpillars, 3 days
Spodoptera littoralis [1] = assay: Example B2 Activity against Spodoptera littoralis, systemic (maize seedlings); conditions: maize seedlings 6 days in test solution, L1 larvae on cut leaves, 4 days
Tetranychus urticae = assay: Example B7 Activity against Tetranychus urticae (sprayed bean plants); conditions: 12.5 ppm spray liquor, mixed population, 25° C., 6 days
Spodoptera littoralis [2] = assay: Example B1 Activity against Spodoptera littoralis (sprayed soya bean plants); conditions: 12.5 ppm spray liquor, first-stage caterpillars, 3 days
Heliothis virescens = assay: Example B3 Activity against Heliothis virescens (eggs on filter paper); conditions: 0.8 ml test solution on 0- to 24-hour-old eggs, evaluation after 6 days

Measured: reduction in the pest population

CCC(C)[C@H]1O[C@]2(C=C[C@@H]1C)C[C@@H]1C[C@@H](C/C=C(\C)[C@@H](O[C@H]3C[C@H](OC)[C@@H](O[C@H]4C[C@H](OC)[C@H](NCc5ccc(OC)cc5)[C@H](C)O4)[C@H](C)O3)C(C)/C=C/C=C3\CO[C@@H]4[C@H](O)C(C)=C[C@@H](C(=O)O1)[C@]34O)O2 (stereo partly drawn) [1.120]
more than 80%: all assays above

CCC(C)C1OC2(C=CC1C)CC1CC(CC=C(C)C(OC3CC(OC)C(OC4CC(OC)C(NC(C)C(C)CO)C(C)O4)C(C)O3)C(C)C=CC=C3COC4C(O)C(C)=CC(C(=O)O1)C34O)O2 (stereo not drawn) [1.054]
more than 80%: all assays above

CCC(C)C1OC2(C=CC1C)CC1CC(CC=C(C)C(OC3CC(OC)C(OC4CC(OC)C(NCc5ccc(NC(C)=O)cc5)C(C)O4)C(C)O3)C(C)C=CC=C3COC4C(O)C(C)=CC(C(=O)O1)C34O)O2 (stereo not drawn) [1.131]
more than 80%: all assays above

CCC(C)C1OC2(C=CC1C)CC1CC(CC=C(C)C(OC3CC(OC)C(OC4CC(OC)C(NC5CCOCC5)C(C)O4)C(C)O3)C(C)C=CC=C3COC4C(O)C(C)=CC(C(=O)O1)C34O)O2 (stereo not drawn) [1.053]
more than 80%: all assays above

CCC(C)[C@H]1O[C@]2(C=C[C@@H]1C)C[C@@H]1C[C@@H](C/C=C(\C)[C@@H](O[C@H]3C[C@H](OC)[C@@H](O[C@H]4C[C@H](OC)[C@H](N(CCC(C)CCCC(C)(C)O)CCC(C)CCCC(C)(C)O)[C@H](C)O4)[C@H](C)O3)C(C)/C=C/C=C3\CO[C@@H]4[C@H](O)C(C)=C[C@@H](C(=O)O1)[C@]34O)O2 (stereo partly drawn) [3.009]
more than 80%: all assays above

CCC(C)C1OC2(C=CC1C)CC1CC(CC=C(C)C(OC3CC(OC)C(OC4CC(OC)C(NC(C)CC(=O)NC(C)(C)C)C(C)O4)C(C)O3)C(C)C=CC=C3COC4C(O)C(C)=CC(C(=O)O1)C34O)O2 (stereo not drawn) [1.056]
more than 80%: all assays above

CCC(C)[C@H]1O[C@]2(C=C[C@@H]1C)C[C@@H]1C[C@@H](C/C=C(\C)[C@@H](O[C@H]3C[C@H](OC)[C@@H](O[C@H]4C[C@H](OC)[C@H](NCc5cccc(C#N)c5)[C@H](C)O4)[C@H](C)O3)C(C)/C=C/C=C3\CO[C@@H]4[C@H](O)C(C)=C[C@@H](C(=O)O1)[C@]34O)O2 (stereo partly drawn) [1.115]
more than 80%: all assays above

CCC(C)[C@H]1O[C@]2(C=C[C@@H]1C)C[C@@H]1C[C@@H](C/C=C(\C)[C@@H](O[C@H]3C[C@H](OC)[C@@H](O[C@H]4C[C@H](OC)[C@H](NCc5ccc6ccc7cccc8ccc5c6c78)[C@H](C)O4)[C@H](C)O3)C(C)/C=C/C=C3\CO[C@@H]4[C@H](O)C(C)=C[C@@H](C(=O)O1)[C@]34O)O2 (stereo partly drawn) [1.158]
more than 80%: all assays above

CCOC(=O)CN(C)[C@@H]1[C@H](C)O[C@@H](O[C@H]2[C@H](C)O[C@@H](O[C@@H]3/C(C)=C/C[C@@H]4C[C@@H](C[C@]5(C=C[C@H](C)[C@@H](C(C)CC)O5)O4)OC(=O)[C@@H]4C=C(C)[C@@H](O)[C@H]5OC/C(=C\C=C\C3C)[C@]54O)C[C@@H]2OC)C[C@@H]1OC (stereo partly drawn) [2.003]
more than 80%: all assays above

CCC(C)C1OC2(C=CC1C)CC1CC(CC=C(C)C(OC3CC(OC)C(OC4CC(OC)C(NCc5c(OC)ccc6ccccc56)C(C)O4)C(C)O3)C(C)C=CC=C3COC4C(O)C(C)=CC(C(=O)O1)C34O)O2 (stereo not drawn) [1.020]
more than 80%: all assays above

CCC(C)C1OC2(C=CC1C)CC1CC(CC=C(C)C(OC3CC(OC)C(OC4CC(OC)C(N(C)Cc5ccc(Br)cc5)C(C)O4)C(C)O3)C(C)C=CC=C3COC4C(O)C(C)=CC(C(=O)O1)C34O)O2 (stereo not drawn) [2.031]
more than 80%: all assays above

CCC(C)[C@H]1O[C@]2(C=C[C@@H]1C)C[C@@H]1C[C@@H](C/C=C(\C)[C@@H](O[C@H]3C[C@H](OC)[C@@H](O[C@H]4C[C@H](OC)[C@H](NCc5c(Cl)cccc5[N+](=O)[O-])[C@H](C)O4)[C@H](C)O3)C(C)/C=C/C=C3\CO[C@@H]4[C@H](O)C(C)=C[C@@H](C(=O)O1)[C@]34O)O2 (stereo partly drawn) [1.091]
more than 80%: all assays above

CCC(C)C1OC2(C=CC1C)CC1CC(CC=C(C)C(OC3CC(OC)C(OC4CC(OC)C(NCc5c(Cl)cccc5Cl)C(C)O4)C(C)O3)C(C)C=CC=C3COC4C(O)C(C)=CC(C(=O)O1)C34O)O2 (stereo not drawn) [1.087]
more than 80%: all assays above

CCC(C)C1OC2(C=CC1C)CC1CC(CC=C(C)C(OC3CC(OC)C(OC4CC(OC)C(NCc5ccc6ccccc6n5)C(C)O4)C(C)O3)C(C)C=CC=C3COC4C(O)C(C)=CC(C(=O)O1)C34O)O2 (stereo not drawn) [1.138]
more than 80%: all assays above

CCC(C)[C@H]1O[C@]2(C=C[C@@H]1C)C[C@@H]1C[C@@H](C/C=C(\C)[C@@H](O[C@H]3C[C@H](OC)[C@@H](O[C@H]4C[C@H](OC)[C@H](NCc5cc(Br)ccc5O)[C@H](C)O4)[C@H](C)O3)C(C)/C=C/C=C3\CO[C@@H]4[C@H](O)C(C)=C[C@@H](C(=O)O1)[C@]34O)O2 (stereo partly drawn) [1.096]
more than 80%: all assays above

CCC(C)C1OC2(C=CC1C)CC1CC(CC=C(C)C(OC3CC(OC)C(OC4CC(OC)C(NCCC(C)CCC=C(C)C)C(C)O4)C(C)O3)C(C)C=CC=C3COC4C(O)C(C)=CC(C(=O)O1)C34O)O2 (stereo not drawn) [1.141]
more than 80%: all assays above

CCC(C)C1OC2(C=CC1C)CC1CC(CC=C(C)C(OC3CC(OC)C(OC4CC(OC)C(NCc5ncc[nH]5)C(C)O4)C(C)O3)C(C)C=CC=C3COC4C(O)C(C)=CC(C(=O)O1)C34O)O2 (stereo not drawn) [1.031]
more than 80%: all assays above

CCC(C)C1OC2(C=CC1C)CC1CC(CC=C(C)C(OC3CC(OC)C(OC4CC(OC)C(NCc5ccc(N(C)C)cc5)C(C)O4)C(C)O3)C(C)C=CC=C3COC4C(O)C(C)=CC(C(=O)O1)C34O)O2 (stereo not drawn) [1.004]
more than 80%: all assays above
